Results: PMC7880588
These are yes or no findings as the source states them, for the method shown. Binding seen in cells or lysates may run through a third protein. Some results given as binding are weak or reduced against the parent protein; the word gives no strength.

Chains of the proteins cited; added tags and fusions are not shown. Residues count along the entry.
UniProt Q9CQN4, residues 24-206: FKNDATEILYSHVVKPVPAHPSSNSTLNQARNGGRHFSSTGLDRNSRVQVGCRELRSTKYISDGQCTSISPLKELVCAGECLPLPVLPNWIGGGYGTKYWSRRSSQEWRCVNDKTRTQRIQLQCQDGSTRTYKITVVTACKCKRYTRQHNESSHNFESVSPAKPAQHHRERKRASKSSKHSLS

Experiments:
[1] = target: soluble human LRP6 ectodomain fragment E1-E2 (residues 1 to 629) (human) (UniProt O75581); assay: pull-down; C-terminally His-tagged LRP6 ectodomain fragments immobilised onto Ni-NTA beads, incubated with culture supernatant of Expi293F cells stably expressing mouse USAG-1; eluted by SDS, nonreducing SDS-PAGE; only the target purified
[2] = target: soluble human LRP6 ectodomain fragment E1-E4 (residues 1 to 1244) (human) (UniProt O75581); assay: as above
[3] = target: T1, soluble human LRP6 ectodomain fragment E3-E4 (residues 630 to 1244) (human) (UniProt O75581); assay: as above
T1 sequence: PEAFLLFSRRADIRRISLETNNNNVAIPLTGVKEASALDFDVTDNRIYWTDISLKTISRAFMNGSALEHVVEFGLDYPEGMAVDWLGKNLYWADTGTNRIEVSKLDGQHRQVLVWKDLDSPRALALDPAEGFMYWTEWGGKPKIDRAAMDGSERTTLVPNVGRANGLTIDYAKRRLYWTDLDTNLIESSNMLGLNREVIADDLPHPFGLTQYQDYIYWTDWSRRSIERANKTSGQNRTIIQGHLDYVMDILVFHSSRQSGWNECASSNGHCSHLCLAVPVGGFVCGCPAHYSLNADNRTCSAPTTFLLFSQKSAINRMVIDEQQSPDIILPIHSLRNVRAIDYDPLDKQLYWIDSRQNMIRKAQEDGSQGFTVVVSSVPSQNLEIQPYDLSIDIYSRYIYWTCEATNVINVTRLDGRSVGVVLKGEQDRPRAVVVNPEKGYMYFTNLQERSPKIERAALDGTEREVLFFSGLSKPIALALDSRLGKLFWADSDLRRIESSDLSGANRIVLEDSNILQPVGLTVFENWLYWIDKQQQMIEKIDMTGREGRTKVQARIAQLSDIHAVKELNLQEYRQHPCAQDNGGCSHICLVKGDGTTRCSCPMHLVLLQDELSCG

[4] = target: mouse USAG-1 (uterine sensitization-associated gene-1) recombinant protein (mouse) (UniProt Q9CQN4); assay: pull-down; Protein A beads with each anti-USAG-1 antibody (step 1), then USAG-1 (step 2), then LRP6 E1-E2 fragment (step 3) to form a ternary complex; nonreducing SDS-PAGE

Substance	binding [1]	binding [2]	binding [3]	binding [4]
mouse USAG-1 (uterine sensitization-associated gene-1) recombinant protein (from UniProt Q9CQN4 24-206)	binds	no binding	no binding	
soluble human LRP6 ectodomain fragment E1-E2 (residues 1 to 629) (from UniProt O75581 20-629) (domain or fragment)				binds
